doi:10.1101/2023.01.18.524620
These are yes or no findings as the source states them, for the method shown. For part of these data: In cells and extracts the contact can be indirect. Some binding calls cover weakened binding; strength is not graded here. Tags and fused reporters may be left off the sequences shown.

Amino acid sequences for entries named in this document (tags omitted).
UniProt P55737: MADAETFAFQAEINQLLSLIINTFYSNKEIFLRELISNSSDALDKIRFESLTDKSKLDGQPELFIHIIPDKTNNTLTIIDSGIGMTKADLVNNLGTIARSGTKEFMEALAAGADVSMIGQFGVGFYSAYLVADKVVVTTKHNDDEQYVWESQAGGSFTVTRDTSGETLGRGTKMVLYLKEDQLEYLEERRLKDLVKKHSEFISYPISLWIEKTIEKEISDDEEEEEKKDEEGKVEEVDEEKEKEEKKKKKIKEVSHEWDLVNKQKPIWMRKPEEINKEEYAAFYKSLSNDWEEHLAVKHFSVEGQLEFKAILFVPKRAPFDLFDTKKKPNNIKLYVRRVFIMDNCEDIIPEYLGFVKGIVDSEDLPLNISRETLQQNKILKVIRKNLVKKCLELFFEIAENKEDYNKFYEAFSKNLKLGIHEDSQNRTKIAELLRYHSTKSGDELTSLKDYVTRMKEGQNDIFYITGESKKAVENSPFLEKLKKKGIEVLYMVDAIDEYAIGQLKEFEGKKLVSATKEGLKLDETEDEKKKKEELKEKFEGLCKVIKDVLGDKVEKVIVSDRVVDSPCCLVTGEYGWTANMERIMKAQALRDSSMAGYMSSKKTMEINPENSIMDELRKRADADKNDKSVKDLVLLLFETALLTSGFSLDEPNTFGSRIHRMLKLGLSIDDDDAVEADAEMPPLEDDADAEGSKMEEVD

T1: cYFP-AGO1 (full-length AGO1 fused to the C-terminal half of YFP) (Arabidopsis thaliana) (UniProt O04379)
T1 sequence: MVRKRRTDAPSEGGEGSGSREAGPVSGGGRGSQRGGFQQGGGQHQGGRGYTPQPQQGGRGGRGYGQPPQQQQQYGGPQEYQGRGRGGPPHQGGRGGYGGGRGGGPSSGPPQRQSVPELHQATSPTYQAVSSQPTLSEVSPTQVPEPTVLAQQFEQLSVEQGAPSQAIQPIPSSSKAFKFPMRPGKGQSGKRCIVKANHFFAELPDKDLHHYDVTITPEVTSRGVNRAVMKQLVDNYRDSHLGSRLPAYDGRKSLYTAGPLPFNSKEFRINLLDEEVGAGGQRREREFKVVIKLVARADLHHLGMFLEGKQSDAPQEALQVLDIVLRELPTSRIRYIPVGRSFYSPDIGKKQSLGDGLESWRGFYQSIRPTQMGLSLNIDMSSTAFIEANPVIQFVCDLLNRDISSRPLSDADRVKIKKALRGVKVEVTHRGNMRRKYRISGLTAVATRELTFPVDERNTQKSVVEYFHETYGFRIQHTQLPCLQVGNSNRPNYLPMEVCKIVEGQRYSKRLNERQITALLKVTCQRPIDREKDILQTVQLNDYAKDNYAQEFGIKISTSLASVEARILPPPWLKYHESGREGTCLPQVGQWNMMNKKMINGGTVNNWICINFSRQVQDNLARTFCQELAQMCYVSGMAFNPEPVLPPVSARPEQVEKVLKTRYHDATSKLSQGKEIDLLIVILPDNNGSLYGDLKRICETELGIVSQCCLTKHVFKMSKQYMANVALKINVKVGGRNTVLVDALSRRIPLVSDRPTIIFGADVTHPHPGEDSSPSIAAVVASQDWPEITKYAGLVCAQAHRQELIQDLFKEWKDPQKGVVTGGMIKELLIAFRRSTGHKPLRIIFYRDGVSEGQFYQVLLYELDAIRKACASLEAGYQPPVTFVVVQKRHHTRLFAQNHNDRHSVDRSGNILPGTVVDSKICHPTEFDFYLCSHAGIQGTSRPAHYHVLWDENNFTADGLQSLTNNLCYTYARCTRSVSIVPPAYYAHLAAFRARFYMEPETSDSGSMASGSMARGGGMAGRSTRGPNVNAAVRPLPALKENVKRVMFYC

T2: N-coil-Globular N part of arabidopsis AGO1 (NcGN^AGO1), Gal4-BD fusion (Arabidopsis thaliana) (UniProt O04379)
T2 sequence: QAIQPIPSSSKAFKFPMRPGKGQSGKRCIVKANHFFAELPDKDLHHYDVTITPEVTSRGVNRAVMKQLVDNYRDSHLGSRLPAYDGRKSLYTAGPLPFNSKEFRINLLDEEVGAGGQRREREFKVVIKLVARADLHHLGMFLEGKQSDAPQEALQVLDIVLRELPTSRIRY

T3: βNc^AGO1 (N-coil plus connecting β-strands), Gal4-BD fusion (Arabidopsis thaliana) (UniProt O04379)
T3 sequence: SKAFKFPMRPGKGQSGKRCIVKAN


Legend:
[1] = target: T1, cYFP-AGO1 (full-length AGO1 fused to the C-terminal half of YFP) (Arabidopsis thaliana); assay: split reporter
[2] = target: T2, N-coil-Globular N part of arabidopsis AGO1 (NcGN^AGO1), Gal4-BD fusion (Arabidopsis thaliana); assay: two-hybrid
[3] = target: T3, βNc^AGO1 (N-coil plus connecting β-strands), Gal4-BD fusion (Arabidopsis thaliana); assay: two-hybrid

Molecule	binding [1]	binding [2]	binding [3]
ATI1 fused to the Gal4 activation domain (protein, UniProt O82775 1-256) MANNEEHPPRGNEWEVVSLTSSAYAAAPGPYNVESRDVRKYDAYYGAETSRDLYMSEHFVFPPSEHENLPIDESLFVAEQRKDGRDLMLEGQGLSDQFHYEAGNNQQSIYGESALGSSRHMESFGSESAVYEHGLVDAEGNLDLHSDGEGEKDVKKSTHNLPCEAWWKRRAISMYSRTREANAIWSLFFAAAVTGLVVLGQRWQQERWQVLQLKWQSSISSEKLGRVLEPLSRLKDVIVRSNPQASLVRSGSSSEV	–	binds	no binding
nYFP-ATI1 (protein, UniProt O82775 1-256) MANNEEHPPRGNEWEVVSLTSSAYAAAPGPYNVESRDVRKYDAYYGAETSRDLYMSEHFVFPPSEHENLPIDESLFVAEQRKDGRDLMLEGQGLSDQFHYEAGNNQQSIYGESALGSSRHMESFGSESAVYEHGLVDAEGNLDLHSDGEGEKDVKKSTHNLPCEAWWKRRAISMYSRTREANAIWSLFFAAAVTGLVVLGQRWQQERWQVLQLKWQSSISSEKLGRVLEPLSRLKDVIVRSNPQASLVRSGSSSEV	binds	–	–
nYFP-ATI2 (protein, UniProt Q8VY98 1-266) MADKDEAATRGNDWEVVSLTASAYAAAPGPKPVVDSKDDDHKEVTPCYEAETSHPLYMSRHFVFPPTGQLENTSDLTEASLTGSHCKEGSDLSLKGLDLSDDFGGLEFSEDKGKKEENIYTTAMSSLDDERAIGGSHVYEPVEEPTEPVSPSDVTLDLNPIKDDEVANSPPSEEAWWKRSVASLIAQAKETNTVWSICIAAAVMGIVILGQHWQQERWQILQQKWESSIGNEKAGRLMGPISRLKQAFVGGQRRDSFIRASAQNDR	binds	–	–

The remaining lines, values ahead:

binding [1]	binding [2]	binding [3]	Molecule
binds	–	–	nYFP-Hsp90.2 (from UniProt P55737 1-699)
no binding	–	–	nYFP-ATI2^Δ119-193 (protein, UniProt Q8VY98) MADKDEAATRGNDWEVVSLTASAYAAAPGPKPVVDSKDDDHKEVTPCYEAETSHPLYMSRHFVFPPTGQLENTSDLTEASLTGSHCKEGSDLSLKGLDLSDDFGGLEFSEDKGKKEENVWSICIAAAVMGIVILGQHWQQERWQILQQKWESSIGNEKAGRLMGPISRLKQAFVGGQRRDSFIRASAQNDR
